Data from US7250488.
Results are given in words; binding and its absence hold for the method and conditions named. For some assays here: Binding seen in cells or lysates may run through a third protein. Some entries that bind do so weakly or less than the wild type. Tags and fused reporters may be left off the sequences shown. Blank lines part the entries; values can stand above or below the binder they belong to.

Protein sequences, listed by entry. Tags and fused reporters are not part of them. Lines headed by an entry give the natural chain unless they say otherwise; changes in a name come on top. Residues count along the entry.
UniProt P04386: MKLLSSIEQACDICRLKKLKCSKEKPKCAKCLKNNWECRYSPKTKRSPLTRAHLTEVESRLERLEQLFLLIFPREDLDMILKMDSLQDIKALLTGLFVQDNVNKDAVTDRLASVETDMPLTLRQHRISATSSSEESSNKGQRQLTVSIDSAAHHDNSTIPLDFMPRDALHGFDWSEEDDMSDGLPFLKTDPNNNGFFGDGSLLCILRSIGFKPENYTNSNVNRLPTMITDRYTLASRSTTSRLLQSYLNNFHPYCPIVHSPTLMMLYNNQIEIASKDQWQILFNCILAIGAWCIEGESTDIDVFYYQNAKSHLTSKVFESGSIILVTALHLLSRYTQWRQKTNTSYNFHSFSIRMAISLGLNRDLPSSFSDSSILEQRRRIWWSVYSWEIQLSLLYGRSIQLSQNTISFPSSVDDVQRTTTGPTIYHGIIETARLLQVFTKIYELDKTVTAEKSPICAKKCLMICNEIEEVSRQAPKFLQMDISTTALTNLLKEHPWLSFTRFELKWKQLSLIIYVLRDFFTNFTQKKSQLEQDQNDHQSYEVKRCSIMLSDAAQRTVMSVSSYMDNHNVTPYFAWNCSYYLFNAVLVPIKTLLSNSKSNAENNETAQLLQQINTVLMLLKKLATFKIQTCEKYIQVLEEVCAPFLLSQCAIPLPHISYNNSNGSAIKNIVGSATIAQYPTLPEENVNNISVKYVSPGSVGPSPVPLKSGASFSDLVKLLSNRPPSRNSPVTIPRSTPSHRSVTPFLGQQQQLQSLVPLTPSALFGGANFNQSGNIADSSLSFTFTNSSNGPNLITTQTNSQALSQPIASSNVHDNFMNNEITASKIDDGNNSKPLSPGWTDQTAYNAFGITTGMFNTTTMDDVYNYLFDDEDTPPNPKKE
UniProt Q02248: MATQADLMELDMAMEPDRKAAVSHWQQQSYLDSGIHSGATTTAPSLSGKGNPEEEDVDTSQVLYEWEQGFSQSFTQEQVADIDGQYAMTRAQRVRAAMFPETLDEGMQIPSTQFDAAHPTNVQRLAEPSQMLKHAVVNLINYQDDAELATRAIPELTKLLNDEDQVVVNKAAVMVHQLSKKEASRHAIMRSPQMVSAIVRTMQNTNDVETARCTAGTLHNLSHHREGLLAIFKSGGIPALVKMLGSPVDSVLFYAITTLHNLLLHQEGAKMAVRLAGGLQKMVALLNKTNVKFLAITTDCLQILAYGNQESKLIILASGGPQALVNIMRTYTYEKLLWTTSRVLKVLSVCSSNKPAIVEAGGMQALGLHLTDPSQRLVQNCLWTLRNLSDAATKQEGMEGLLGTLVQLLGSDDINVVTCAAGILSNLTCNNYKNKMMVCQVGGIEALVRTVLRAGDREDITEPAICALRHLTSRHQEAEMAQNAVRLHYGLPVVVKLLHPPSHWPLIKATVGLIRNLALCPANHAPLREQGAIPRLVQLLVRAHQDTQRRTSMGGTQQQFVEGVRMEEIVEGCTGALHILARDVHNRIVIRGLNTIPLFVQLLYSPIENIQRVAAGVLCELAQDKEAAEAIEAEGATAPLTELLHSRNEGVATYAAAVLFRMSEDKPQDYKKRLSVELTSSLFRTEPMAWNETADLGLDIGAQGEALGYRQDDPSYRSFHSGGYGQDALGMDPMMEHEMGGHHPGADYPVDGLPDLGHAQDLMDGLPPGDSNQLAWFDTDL
mouse β-catenin: residues 2-781 of Q02248
armadillo domain of mouse β-catenin (residues 141 to 664), ^35S-labeled: residues 141-664 of Q02248

Columns and labels:
[1] = target: T1, GAL4-β-catenin fusion protein (GAL4 BD fused with mβ-catenin arm, residues 141 to 664) (yeast; mouse) (UniProt P04386+Q02248); test: yeast two-hybrid, β-galactosidase activity
[2] = target: T1, GAL4-β-catenin fusion protein (GAL4 BD fused with mβ-catenin arm, residues 141 to 664) (yeast; mouse); test: restates the yeast two-hybrid result of Example 11(1)
[3] = target: T1, GAL4-β-catenin fusion protein (GAL4 BD fused with mβ-catenin arm, residues 141 to 664) (yeast; mouse); test: yeast two-hybrid screen of a mouse fetal cDNA library, HIS3 and lacZ reporters
[4] = target: armadillo domain of mouse β-catenin (residues 141 to 664), ^35S-labeled (mouse) (UniProt Q02248); test: restates the GST/ICAT pull-down of Example 8
mouse β-catenin (mouse) = mouse β-catenin (mouse) (UniProt Q02248); test: pull-down on glutathione-Sepharose 4B of ^35S-labeled β-catenin, SDS-PAGE, autoradiography
[5] = target: armadillo domain of mouse β-catenin (residues 141 to 664), ^35S-labeled (mouse) (UniProt Q02248); test: GST/ICAT pull-down of ^35S-labeled in vitro translated fragment, autoradiography

Binder: EMYIQQKVRVLLMLRKMGSNLTASEEEFLRTYAGVVSSQLSQLPQHSID (peptide, not shown: large carriers) [ICAT(13-61), GAL4 AD fusion]
binding [1]: binds

B1: ICAT (1-61), GAL4 AD fusion (protein, not shown: large carriers)
chain: MNREGAPGKSPEEMYIQQKVRVLLMLRKMGSNLTASEEEFLRTYAGVVSSQLSQLPQHSID
binding [1]: binds

B3: GAL4 AD fusion of mouse normal ICAT (two-hybrid prey) (protein, not shown: large carriers)
chain: MNREGAPGKSPEEMYIQQKVRVLLMLRKMGSNLTASEEEFLRTYAGVVSSQLSQLPQHSIDQGAEDVVMAFSRSETEDRRQ
binding [3]: binds

Further lines, results first:

binding [2]: binds
binding [1]: binds
B2: ICAT (13-81), GAL4 AD fusion (protein, not shown: large carriers)
chain: EMYIQQKVRVLLMLRKMGSNLTASEEEFLRTYAGVVSSQLSQLPQHSIDQGAEDVVMAFSRSETEDRRQ

binding [4]: binds
binding (mouse β-catenin (mouse)): binds
binding [5]: binds
B4: GST/ICAT (fusion protein between GST and ICAT) (protein, not shown: a dimerising Fc or GST)
chain: B3 chain
